Results: the supplement of paper PMC3334620
Over roughly 33,000 sequences, “E-score (-0.5 to 0.5)” has its median near -8e-05; the highest 2% begin near 0.23. The list shows a part of the results.

Each sequence was assayed against T1, Nrg2 (UniProt P38082) (assay: PBM E-score (8-mer binding enrichment) (E-score (-0.5 to 0.5)); higher = stronger / more preferred TF binding). Settings: protein concentration: 100 nM; construct: GST-full length.
T1 sequence: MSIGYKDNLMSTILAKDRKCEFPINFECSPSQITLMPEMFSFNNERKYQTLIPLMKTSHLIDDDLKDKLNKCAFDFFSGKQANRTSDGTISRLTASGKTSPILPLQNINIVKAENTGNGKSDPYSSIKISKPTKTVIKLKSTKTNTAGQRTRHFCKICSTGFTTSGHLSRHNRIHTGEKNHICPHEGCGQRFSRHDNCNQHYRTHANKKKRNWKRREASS
Protocol: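 Universal 'all 10-mer' protein binding microarrays (Agilent AMADID 015681) probed with GST-tagged S. cerevisiae TFs (full-length or DBD) made by in vitro transcription/translation (PURExpress), about 100-200 nM. Bound TF was detected with fluorescent anti-GST. Each ungapped 8-mer (which stands for itself and its reverse complement) is scored by the PBM enrichment score (E-score), a modified Wilcoxon-Mann-Whitney statistic from -0.5 to +0.5, computed with the Universal PBM Analysis Suite. Scale: above 0.35 generally sequence-specific binding.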

Sequence | PBM E-score
CGATTGCA | 0.0892
ACTCTAAG | -0.167
CCCCTTAG | -0.179
ACTAGTCG | -0.149
GATTCTTA | 0.0806
AATGTTGA | -0.019
TGATAGAA | -0.0926
AAAGGCTT | -0.0369
AAGTGCTG | -0.00141
AGGTCTAC | -0.143
CGCTATCC | 0.0398
GTATATTA | 0.107
ACTCATTC | 0.117
TCTCCAAA | 0.0619
GCACTCGA | -0.0456
CATAAGCG | -0.0101
ACCAGTTC | -0.0501
ACTTATTA | 0.0462
CCTTGGCG | 0.0251
CGAATAGA | -0.102
GAGCTTAA | -0.125
AGGAGTAA | 0.0539
CCGGTACG | -0.354
CTTCCACC | -0.229
AAGTTGGC | 0.0472

Sequence | PBM E-score
ATCAGGGA | 0.0565
GCTGTTCC | -0.182
ATGCTATG | 0.0909
CCGGAGAA | -0.0787
GTCCGTAA | -0.0758
ATCTAGTA | 0.167
GCCATCCA | -0.141
CGTGTGAC | -0.116
CCCACCCC | 0.177
AGCCTCTA | -0.28
CAGAGTGC | -0.0667
AGATATTC | 0.0342
AATAAACG | -0.00619
ACATCTTG | -0.124
AGGAGCAC | 0.0739
AGGCCAAG | -0.227
CATGTGTA | -0.0451
CGAATGCA | 0.123
AACAGGGA | 0.176
ACGGCCTC | 0.0332
ACTTGCTG | 0.0682
GGCATGCA | -0.113
CTCATTAC | 0.0586
TCCGCCAA | -0.0411
GTTTACAA | 0.00551

Sequence | PBM E-score
ATGGACCC | 0.206
ATTATACG | 0.252
AACCCTAC | 0.0389
GGCTCGTA | -0.034
TAGGGTGA | 0.0361
TCCTCTAA | -0.183
TAACCCGA | -0.0862
TACTACGA | 0.122
CCAGACAA | -0.141
CTACCCTA | -0.0515
CCGAGTAA | 0.0101
CTGAAGAC | -0.082
GACTGCAC | -0.21
ACGACTTA | -0.17
GGTCACAC | -0.278
ATCCCGTA | 0.0853
AGTCCAGA | -0.106
AGGAGCTA | -0.282
CGGAGATA | 0.0572
AAGGGATC | 0.135
CAGCACCG | -0.027
ACAAATAC | 0.225
CGTCTCCA | 0.21
ATCGGGAC | -0.178
CGCAAATA | 0.0777

Sequence | PBM E-score
CCCTCACC | -0.0172
GATTTCAC | 0.127
GGGCGTCA | 0.0318
GCCGCCAA | -0.038
ACGAAATC | 0.203
AATTCAAT | 0.129
ATCAGCAC | 0.0345
CAATCGCC | 0.00157
AGCGATCG | 0.24
GAACATGC | -0.0112
AGTCGAAC | 0.105
ACCCAATA | -0.0384
ATAACATG | 0.024
CAACACAA | 0.118
AGCGCTGC | -0.0837
AATGGGCT | 0.00645
TGGGGTAA | 0.126
ACGCCCTG | 0.131
CATGCGCA | 0.164
GCGCGGCC | 0.0897
AACCGGAA | 0.0485
CCGACGCA | -0.178
CCGCGTCG | 0.0424
AAGAGGGG | -0.0386
GCTTTAAA | -0.0961

Sequence | PBM E-score
GATAATAC | 0.151
ACGCAGGA | -0.0901
AATGTAAG | 0.124
ATACATAT | 0.235
GGCCGTAA | -0.0803
ATAGGAGA | -0.173
AGCTAGAT | 0.0416
CCCCTTGA | 0.2
TAGGTTCA | 0.0602
AAGTGTCG | -0.0215
CGTCGGTC | 0.00408
TACTTCCA | 0.136
ATCCACAC | 0.0612
GAGCACGA | 0.0776
CGCGCTAG | 0.03
ACTAATCG | 0.278
GCCATACA | 0.0705
GATGATCA | -0.00173
ACTAGGGG | 0.0946
TGCCTACA | -0.102
AGGTATAA | 0.117
CGTCGTGC | 0.0843
GCGGGGAC | 0.054
GTGGTTAA | 0.0728
AATGTAAA | 0.131

Reformatted tab-delimited: part of the list above.
Sequence	PBM E-score
GGCCGTAA	-0.0803
ATAGGAGA	-0.173
AGCTAGAT	0.0416
CCCCTTGA	0.2
TAGGTTCA	0.0602
AAGTGTCG	-0.0215
CGTCGGTC	0.00408

Additional entries follow:

Sequence | PBM E-score
GTTAGCTA | -0.0504
ATCAAATG | 0.1
GCAGACAC | 0.0688
GTTAAGCA | 0.011
CCGGAATA | 0.00475
AGAATGCA | 0.138
CGGCATGC | 0.0842
ACCTATCA | -0.0524
CTATACGA | -0.0599
CACGGCGG | -0.0766
AAGATAAG | 0.014
ACCTAGTA | -0.208
TTCTGCAA | 0.149
ATACGCAT | 0.145
ATATGCTC | 0.0262
CCTGGTCA | 0.0654
CACGCATG | -0.102
AGATCGTG | -0.0506
AAGGCCCA | -0.13
AATCATCT | -0.0427
CATACCGA | -0.154
CCCCCAGC | -0.342
AGTCTGCC | -0.162
AACCGAAA | 0.0409
AAGACTTA | -0.351

Copied from the results shown (2 entries):
Sequence | PBM E-score
ACCTATCA | -0.0524
CTATACGA | -0.0599

Following part

Sequence | PBM E-score
AGACCTGC | -0.253
CGACTGGA | 0.00157
GGTCCCAA | -0.0386
CCATATGG | 0.0558
AAGCAGGA | 0.0194
TCTGCCAA | -0.2
GGCCTTAA | 0.00956
AATGCGGA | 0.102
AGACGATA | 0.023
GGGCTGTA | -0.128
TACCGGTA | -0.0968
ATGAGAGA | 0.172
ATGTGACC | -0.00755
AACCAAGT | 0.157
CTGAGTCA | 0.0517
TATCAGGA | 0.0358
ACAGGTAC | -0.0791
AAATAGTT | 0.113
AACGCGCC | -0.0139
CAAACATC | 0.00976
CCCATTGC | -0.116
GCGGACGC | -0.0733
